This is one part of the list. Small differences around the control level are noise.

The chains behind the UniProt entries cited, without tags or fusion partners. Where a name states a change or a piece, a line headed by the entry shows the natural chain unless it says otherwise.
UniProt Q8BH48: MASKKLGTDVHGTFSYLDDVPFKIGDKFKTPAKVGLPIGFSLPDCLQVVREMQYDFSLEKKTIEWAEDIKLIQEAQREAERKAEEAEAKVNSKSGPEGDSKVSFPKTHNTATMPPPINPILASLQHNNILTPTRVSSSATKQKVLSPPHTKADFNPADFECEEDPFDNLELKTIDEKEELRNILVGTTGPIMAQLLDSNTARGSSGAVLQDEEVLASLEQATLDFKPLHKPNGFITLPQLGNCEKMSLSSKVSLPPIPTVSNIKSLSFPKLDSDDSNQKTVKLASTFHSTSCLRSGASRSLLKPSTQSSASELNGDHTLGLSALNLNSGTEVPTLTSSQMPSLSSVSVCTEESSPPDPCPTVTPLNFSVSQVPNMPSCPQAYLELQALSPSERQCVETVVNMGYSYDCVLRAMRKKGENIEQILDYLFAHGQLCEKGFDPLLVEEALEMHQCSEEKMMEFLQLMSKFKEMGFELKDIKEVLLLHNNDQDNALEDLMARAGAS
UniProt Q8BGW2: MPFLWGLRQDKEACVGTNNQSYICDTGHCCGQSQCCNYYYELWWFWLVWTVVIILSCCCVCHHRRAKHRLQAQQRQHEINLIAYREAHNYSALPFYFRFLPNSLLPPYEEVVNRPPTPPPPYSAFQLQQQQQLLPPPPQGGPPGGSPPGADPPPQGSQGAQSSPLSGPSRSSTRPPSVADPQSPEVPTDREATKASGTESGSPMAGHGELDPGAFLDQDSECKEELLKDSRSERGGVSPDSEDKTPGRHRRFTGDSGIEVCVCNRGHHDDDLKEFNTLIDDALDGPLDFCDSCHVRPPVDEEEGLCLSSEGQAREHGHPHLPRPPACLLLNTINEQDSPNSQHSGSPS
UniProt Q80XL1: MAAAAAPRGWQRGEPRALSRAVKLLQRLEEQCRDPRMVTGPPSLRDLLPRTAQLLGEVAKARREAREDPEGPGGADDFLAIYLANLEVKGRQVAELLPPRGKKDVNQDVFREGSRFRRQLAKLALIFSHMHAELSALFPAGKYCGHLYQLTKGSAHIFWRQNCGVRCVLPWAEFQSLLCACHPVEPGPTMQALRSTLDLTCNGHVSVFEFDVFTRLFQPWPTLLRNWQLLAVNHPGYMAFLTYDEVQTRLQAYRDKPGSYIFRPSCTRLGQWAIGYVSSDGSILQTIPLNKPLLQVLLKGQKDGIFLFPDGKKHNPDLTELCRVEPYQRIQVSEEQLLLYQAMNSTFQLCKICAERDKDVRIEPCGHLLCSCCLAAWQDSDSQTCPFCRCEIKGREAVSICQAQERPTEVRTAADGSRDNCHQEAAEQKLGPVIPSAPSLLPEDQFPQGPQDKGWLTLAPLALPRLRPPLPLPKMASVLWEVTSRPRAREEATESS
UniProt Q80Y17: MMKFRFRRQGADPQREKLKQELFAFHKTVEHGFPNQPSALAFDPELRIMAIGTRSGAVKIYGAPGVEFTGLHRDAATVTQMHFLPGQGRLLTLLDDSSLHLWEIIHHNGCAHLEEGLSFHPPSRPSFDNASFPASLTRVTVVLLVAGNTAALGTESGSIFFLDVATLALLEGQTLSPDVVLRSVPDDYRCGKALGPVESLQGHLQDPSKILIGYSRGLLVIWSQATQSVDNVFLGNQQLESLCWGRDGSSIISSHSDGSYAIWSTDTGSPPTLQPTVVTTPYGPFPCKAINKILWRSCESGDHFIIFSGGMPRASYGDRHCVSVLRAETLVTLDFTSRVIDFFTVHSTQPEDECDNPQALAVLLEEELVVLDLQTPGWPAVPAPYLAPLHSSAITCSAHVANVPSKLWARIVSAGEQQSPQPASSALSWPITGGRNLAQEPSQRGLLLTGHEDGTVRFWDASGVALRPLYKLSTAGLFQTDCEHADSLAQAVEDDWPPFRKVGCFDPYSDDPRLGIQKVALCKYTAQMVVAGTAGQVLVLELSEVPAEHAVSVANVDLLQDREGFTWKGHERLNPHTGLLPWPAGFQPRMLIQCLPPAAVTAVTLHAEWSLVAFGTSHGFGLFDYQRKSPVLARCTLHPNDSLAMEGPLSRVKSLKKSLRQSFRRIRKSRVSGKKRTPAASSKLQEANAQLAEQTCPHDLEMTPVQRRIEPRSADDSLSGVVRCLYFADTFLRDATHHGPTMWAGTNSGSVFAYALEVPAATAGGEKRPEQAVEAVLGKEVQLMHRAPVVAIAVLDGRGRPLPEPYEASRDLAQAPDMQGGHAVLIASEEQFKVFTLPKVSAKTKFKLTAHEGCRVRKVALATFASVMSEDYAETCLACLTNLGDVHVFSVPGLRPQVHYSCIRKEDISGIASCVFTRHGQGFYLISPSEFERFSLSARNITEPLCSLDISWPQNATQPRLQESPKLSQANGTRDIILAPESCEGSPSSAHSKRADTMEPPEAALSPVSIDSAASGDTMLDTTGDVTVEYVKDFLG
UniProt Q8BGV8: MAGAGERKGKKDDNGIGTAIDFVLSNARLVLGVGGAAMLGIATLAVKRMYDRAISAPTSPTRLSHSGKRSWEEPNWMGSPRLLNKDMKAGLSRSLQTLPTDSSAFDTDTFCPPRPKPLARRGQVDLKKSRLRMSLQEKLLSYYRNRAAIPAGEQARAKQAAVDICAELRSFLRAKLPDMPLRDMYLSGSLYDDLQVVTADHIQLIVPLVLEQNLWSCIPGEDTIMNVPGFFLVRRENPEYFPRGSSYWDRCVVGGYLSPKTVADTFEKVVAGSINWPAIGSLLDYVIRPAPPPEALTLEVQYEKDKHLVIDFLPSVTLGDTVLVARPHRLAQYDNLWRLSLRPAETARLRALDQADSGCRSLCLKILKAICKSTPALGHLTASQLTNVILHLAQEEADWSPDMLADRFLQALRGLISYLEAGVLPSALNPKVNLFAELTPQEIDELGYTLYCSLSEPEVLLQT
UniProt Q80X19: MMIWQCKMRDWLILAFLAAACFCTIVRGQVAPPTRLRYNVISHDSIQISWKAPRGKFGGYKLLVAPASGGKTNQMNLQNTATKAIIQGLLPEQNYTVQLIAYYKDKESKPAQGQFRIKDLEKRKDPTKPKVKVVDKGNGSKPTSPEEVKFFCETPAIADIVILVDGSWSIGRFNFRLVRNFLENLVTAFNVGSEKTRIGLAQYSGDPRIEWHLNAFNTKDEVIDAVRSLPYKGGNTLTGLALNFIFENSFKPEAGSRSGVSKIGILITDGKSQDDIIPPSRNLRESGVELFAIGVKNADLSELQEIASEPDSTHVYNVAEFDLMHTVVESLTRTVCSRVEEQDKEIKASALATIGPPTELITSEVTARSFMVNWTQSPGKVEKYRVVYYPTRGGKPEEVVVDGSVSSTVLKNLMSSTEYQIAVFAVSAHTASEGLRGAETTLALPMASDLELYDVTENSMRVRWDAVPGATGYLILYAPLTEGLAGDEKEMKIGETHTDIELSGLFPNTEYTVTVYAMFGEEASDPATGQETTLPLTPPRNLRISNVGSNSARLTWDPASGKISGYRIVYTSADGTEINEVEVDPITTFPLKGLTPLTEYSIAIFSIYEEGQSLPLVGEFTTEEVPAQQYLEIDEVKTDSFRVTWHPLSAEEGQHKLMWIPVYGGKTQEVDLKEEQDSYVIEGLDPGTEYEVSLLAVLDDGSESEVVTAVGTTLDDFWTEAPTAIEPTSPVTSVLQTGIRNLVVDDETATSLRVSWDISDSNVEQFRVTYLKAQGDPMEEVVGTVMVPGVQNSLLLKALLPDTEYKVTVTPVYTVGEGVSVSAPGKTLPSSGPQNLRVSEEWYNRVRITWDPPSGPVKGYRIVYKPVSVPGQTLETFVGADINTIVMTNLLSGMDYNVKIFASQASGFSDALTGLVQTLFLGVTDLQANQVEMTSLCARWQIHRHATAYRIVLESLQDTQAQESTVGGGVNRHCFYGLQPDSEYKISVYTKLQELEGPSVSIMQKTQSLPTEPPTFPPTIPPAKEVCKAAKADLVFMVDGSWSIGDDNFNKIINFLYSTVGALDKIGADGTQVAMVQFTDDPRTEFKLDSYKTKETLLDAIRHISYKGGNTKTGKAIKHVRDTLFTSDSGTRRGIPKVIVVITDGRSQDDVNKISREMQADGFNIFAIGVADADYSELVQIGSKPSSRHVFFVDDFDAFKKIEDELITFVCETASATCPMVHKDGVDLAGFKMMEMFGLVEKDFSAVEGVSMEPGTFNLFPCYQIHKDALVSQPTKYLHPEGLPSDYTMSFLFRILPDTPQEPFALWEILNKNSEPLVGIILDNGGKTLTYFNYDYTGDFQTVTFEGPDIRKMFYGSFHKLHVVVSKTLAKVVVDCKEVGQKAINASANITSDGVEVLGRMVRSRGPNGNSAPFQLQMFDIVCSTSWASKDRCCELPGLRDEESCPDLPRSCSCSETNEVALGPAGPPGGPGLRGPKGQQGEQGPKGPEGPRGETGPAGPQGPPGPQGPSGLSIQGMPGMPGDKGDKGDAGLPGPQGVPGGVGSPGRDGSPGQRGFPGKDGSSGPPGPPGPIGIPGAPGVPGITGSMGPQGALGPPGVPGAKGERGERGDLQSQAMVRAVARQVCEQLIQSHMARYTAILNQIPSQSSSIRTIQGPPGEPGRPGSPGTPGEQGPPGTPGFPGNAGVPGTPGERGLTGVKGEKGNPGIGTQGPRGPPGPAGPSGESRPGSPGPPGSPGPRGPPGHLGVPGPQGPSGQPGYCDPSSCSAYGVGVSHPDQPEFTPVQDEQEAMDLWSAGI
UniProt Q80Y20: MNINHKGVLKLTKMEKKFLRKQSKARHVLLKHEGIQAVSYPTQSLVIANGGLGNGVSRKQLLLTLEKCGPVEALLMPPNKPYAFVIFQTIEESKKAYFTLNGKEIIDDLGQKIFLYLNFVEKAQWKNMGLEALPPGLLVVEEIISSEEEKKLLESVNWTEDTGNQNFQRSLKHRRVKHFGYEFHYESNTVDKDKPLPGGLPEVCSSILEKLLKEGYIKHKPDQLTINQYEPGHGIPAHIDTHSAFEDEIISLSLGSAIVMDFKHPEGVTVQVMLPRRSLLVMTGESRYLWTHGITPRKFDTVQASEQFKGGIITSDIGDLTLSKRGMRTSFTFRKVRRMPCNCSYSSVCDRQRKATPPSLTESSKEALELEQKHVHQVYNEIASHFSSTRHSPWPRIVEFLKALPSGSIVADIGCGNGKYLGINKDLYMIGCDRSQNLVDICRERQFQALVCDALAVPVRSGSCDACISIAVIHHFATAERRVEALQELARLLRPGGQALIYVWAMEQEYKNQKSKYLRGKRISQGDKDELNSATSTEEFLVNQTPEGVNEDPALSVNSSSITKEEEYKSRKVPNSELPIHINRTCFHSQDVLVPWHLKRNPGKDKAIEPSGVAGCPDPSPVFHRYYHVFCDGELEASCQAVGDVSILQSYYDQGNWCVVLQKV
UniProt Q8BFS6, whole entry: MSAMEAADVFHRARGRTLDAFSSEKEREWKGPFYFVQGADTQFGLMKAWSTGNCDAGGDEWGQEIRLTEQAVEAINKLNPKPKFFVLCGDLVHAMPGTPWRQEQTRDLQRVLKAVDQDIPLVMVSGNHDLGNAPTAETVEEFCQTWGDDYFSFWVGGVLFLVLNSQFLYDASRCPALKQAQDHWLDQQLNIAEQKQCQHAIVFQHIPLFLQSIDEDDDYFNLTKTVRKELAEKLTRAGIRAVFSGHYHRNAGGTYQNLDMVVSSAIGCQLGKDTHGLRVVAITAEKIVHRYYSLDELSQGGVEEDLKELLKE
UniProt Q80X80: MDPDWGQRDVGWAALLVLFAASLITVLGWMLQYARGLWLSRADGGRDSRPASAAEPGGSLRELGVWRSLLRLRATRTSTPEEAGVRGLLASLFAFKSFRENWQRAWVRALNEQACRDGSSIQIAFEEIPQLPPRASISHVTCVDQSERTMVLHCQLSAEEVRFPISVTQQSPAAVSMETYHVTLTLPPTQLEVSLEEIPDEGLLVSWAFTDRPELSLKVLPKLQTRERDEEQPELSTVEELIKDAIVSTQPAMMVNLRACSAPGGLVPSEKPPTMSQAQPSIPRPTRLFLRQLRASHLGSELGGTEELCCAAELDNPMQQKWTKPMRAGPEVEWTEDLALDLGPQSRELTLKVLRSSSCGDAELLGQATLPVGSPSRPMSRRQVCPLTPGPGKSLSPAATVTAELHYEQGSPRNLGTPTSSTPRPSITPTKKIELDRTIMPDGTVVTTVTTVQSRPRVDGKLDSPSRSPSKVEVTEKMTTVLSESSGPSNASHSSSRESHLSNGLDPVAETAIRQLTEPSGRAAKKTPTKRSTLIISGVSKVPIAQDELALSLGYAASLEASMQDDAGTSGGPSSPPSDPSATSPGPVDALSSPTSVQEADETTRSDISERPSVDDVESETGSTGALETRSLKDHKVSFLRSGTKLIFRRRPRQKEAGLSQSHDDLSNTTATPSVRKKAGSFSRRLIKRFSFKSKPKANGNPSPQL
UniProt Q80ZQ9: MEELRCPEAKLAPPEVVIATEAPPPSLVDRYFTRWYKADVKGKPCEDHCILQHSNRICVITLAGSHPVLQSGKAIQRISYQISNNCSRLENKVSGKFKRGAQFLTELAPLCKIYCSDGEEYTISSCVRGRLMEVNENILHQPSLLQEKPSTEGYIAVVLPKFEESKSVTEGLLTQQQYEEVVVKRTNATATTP

Compound in the experiment: CN[C@@H]1C[C@H]2O[C@@](C)([C@@H]1OC)n1c3ccccc3c3c4c(c5c6ccccc6n2c5c31)C(=O)NC4 [staurosporine]
The experiment can be described thus: log2 fold change of tryptic peptide abundance, ligand vs vehicle (limited proteolysis) (log2 ratio); higher = more trypsin-susceptible (destabilized). The conditions noted are these: ligand concentration: 20 uM; sample: mouse liver crude lysate; replicate design: treated separately.
Regarding “UniProt Q8BHR2 (peptide sequence: MRLGSSTDKK, peptide start residue: 200)”, the log2 fold change was -0.136. The same measure for “UniProt Q80Z25 (peptide sequence: LLEEERK, peptide start residue: 131)”: -0.116.

As for “UniProt Q80XD1 (peptide sequence: CSDCGLNVHKQCSK, peptide start residue: 109)”, the log2 fold change is -0.25. As for “UniProt Q8BH48 (peptide sequence: LASTFHSTSCLR, peptide start residue: 283)”, the log2 fold change came to 0.117. The value for “UniProt Q80WS3 (peptide sequence: KRTNIIPVLEDAR, peptide start residue: 200)” was -0.0844; that for “UniProt Q8BG21 (peptide sequence: KGDAISYAR, peptide start residue: 142)” was -0.0871; that for “UniProt Q8BHE1 (peptide sequence: QQQLDAER, peptide start residue: 156)” was 0.203. The value for “UniProt Q80VJ2 (peptide sequence: VAAPQDGSPR, peptide start residue: 41)” was 0.131; that for “UniProt Q80X71 (peptide sequence: SAYVSYDAEKR, peptide start residue: 131)” was -0.0678; that for “UniProt Q8BHE8 (peptide sequence: LGDQSVETK, peptide start residue: 250)” was -0.658. Regarding “UniProt Q8BGW2 (peptide sequence: QHEINLIAYR, peptide start residue: 76)”, the log2 fold change was determined as 0.378.

Take “UniProt Q80WQ4 (peptide sequence: TPGTSDNFSGHK, peptide start residue: 323)”: the log2 fold change is -0.15. The value for “UniProt Q8BFW7 (peptide sequence: LRGQPFYAVEKK, peptide start residue: 452)” was -0.221; that for “UniProt Q8BGF7 (peptide sequence: RAPPVDAEILR, peptide start residue: 422)” was 0.665; that for “UniProt Q80XL1 (peptide sequence: DVNQDVFR, peptide start residue: 104)” was 0.38. The same measure for “UniProt Q80Y17 (peptide sequence: RPEQAVEAVLGK, peptide start residue: 768)”: 0.774. The value for “UniProt Q8BH64 (peptide sequence: VVGTPEVLR, peptide start residue: 243)” was 0.306. For “UniProt Q8BGJ9 (peptide sequence: VNCSFYFK, peptide start residue: 16)”, the log2 fold change turned out to be 0.283.

For “UniProt Q8BG30 (peptide sequence: LLLGTLHLPR, peptide start residue: 56)”, the log2 fold change amounted to 0.979.

In the case of “UniProt Q8BGV8 (peptide sequence: LLNKDMK, peptide start residue: 82)”, the log2 fold change is -0.312. The same measure for “UniProt Q80X19 (peptide sequence: HVFFVDDFDAFKK, peptide start residue: 1189)”: 0.115; for “UniProt Q8BH57 (peptide sequence: LSASDMLQVR, peptide start residue: 585)”: 0.58.

Turning to “UniProt Q8BFS9 (peptide sequence: SAVNYQCLFSGHVLHLR, peptide start residue: 41)”, the log2 fold change amounted to 0.592.

For “UniProt Q80X32 (peptide sequence: QDPLNETHLQPTSGR, peptide start residue: 56)”, the log2 fold change was -0.257. The value for “UniProt Q80Y20 (peptide sequence: KVPNSELPIHINR, peptide start residue: 572)” was 0.28; that for “UniProt Q80W54 (peptide sequence: SIDFPLTK, peptide start residue: 244)” was -0.359; that for “UniProt Q80W04 (peptide sequence: LKEIEQNGPSR, peptide start residue: 358)” was 0.359. The same measure for “UniProt Q8BFS6 (peptide sequence: SAMEAADVFHR, peptide start residue: 2)”: 0.134. The same measure for “UniProt Q8BGQ1 (peptide sequence: CHDVVIDTCR, peptide start residue: 444)”: 0.282. In the case of “UniProt Q80XS6 (peptide sequence: CLTHEAFTETQK, peptide start residue: 499)”, the log2 fold change worked out at 0.947.

On to “UniProt Q80Y84 (peptide sequence: ALIEESEMK, peptide start residue: 781)”, for which the log2 fold change is -0.247. The same measure for “UniProt Q80X80 (peptide sequence: QVCPLTPGPGK, peptide start residue: 383)”: 0.3; for “UniProt Q8BGV0 (peptide sequence: WGVDLQTEHEK, peptide start residue: 343)”: -0.972.

“UniProt Q8BGN5 (peptide sequence: GTTVQPDLK, peptide start residue: 353)”: the log2 fold change was -0.0784. The value for “UniProt Q8BHB4 (peptide sequence: EAEYEESVAK, peptide start residue: 719)” was 0.24. The value for “UniProt Q80ZQ9 (peptide sequence: ISYQISNNCSR, peptide start residue: 78)” was 0.226.

Take “UniProt Q8BGT6 (peptide sequence: GAKPVRPPAPGHGFPLIK, peptide start residue: 660)”: the log2 fold change came out at 0.347.

For the origin of these results see the supplement of paper PMC12819154, “High-throughput peptide-centric local stability assay extends protein–ligand identification to membrane proteins, tissues and bacteria” (Nature Structural & Molecular Biology, 2025).
